{
  "source": "PubChem BioAssay AID662",
  "about": "(National Center for Advancing Translational Sciences (NCATS), 2007)",
  "note": "The other results are listed elsewhere or left out. The main result of the screen is listed elsewhere. These columns were measured beside it and carry no call. Compounds called inactive in the main read-out are mostly missing here. Potencies come from curve fits of mixed quality, noted in brackets.",
  "data": [
    {"test": "Cell signaling CRE-BLA (Fsk stim)", "settings": "CHO CRE-bla reporter (cAMP response element driving beta-lactamase), forskolin EC10, beta-lactamase ratio; measured here: 460 nm blue channel", "how_it_was_run": "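Using CellSensor CRE-bla CHO cells in Opti-MEM with 0.5% dialyzed FBS, compounds were titrated with EC10 NKH 477 for 3 h at 37 °C. CCF4 ratio (460/530 nm) gave %Activity; AC50 derived.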", "values": [
      {"smiles": "CCCCCCN(C(=O)CCCCCN1C(=O)NC(c2ccc(-c3ccccc3)cc2)C(C(=O)OCc2ccccc2)=C1C)C(C(=O)NCCCC)c1ccc(OCC(=O)OC)c(C(=O)OC)c1", "note": "(configuration not stated)", "AC50": "3.16 µM [rising, full curve, poor fit]"},
      {"smiles": "CCC(C(=O)Nc1nccs1)c1ccccc1", "note": "(configuration not stated)", "AC50": "1 µM [falling, full curve]"},
      {"smiles": "CCOc1cccc(-n2nnnc2-c2ccc(OC)cc2)c1", "AC50": "15.8 µM [rising, single point]"},
      {"smiles": "Cc1ccc(C)c(N2CCN(S(=O)(=O)c3ccc4[nH]c(=O)c(=O)[nH]c4c3)CC2)c1", "AC50": "2 µM [falling, partial curve, poor fit]"},
      {"smiles": "CCCc1[nH]nc2c1C(c1ccc(OC)cc1OC)C(C#N)=C(N)O2", "note": "(configuration not stated)", "AC50": "0.126 µM [falling, single point]"},
      {"smiles": "CN(Cc1ccco1)c1ncnc2ccc(-c3cccnc3)cc12", "AC50": "3.98 µM [rising, full curve]"},
      {"smiles": "COCCn1c(SCC(=O)N2CCCc3ccccc32)nc2ccccc2c1=O", "AC50": "3.16 µM [rising, single point]"},
      {"smiles": "CCCCn1c(SCC(=O)NC(=O)NCc2ccco2)nc2cc(S(N)(=O)=O)ccc21", "AC50": "3.16 µM [falling, full curve]"},
      {"smiles": "Cc1oc(-c2ccccc2F)nc1CN1CCC(C(=O)NCc2cccs2)CC1", "AC50": "12.6 µM [falling, single point]"},
      {"smiles": "COc1cc(Cl)c(S(=O)(=O)N2CCN(Cc3ccc4c(c3)OCO4)CC2)cc1Cl", "AC50": "15.8 µM [falling, partial curve]"},
      {"smiles": "O=c1oc2c(CN3CCOCC3)c(O)c(Cl)cc2c2c1CCC2", "AC50": "10 µM [rising, partial curve]"},
      {"smiles": "COc1ccc(C(=O)OCCNC(=O)c2c(Cl)nc3ccccn23)cc1", "AC50": "0.501 µM [rising, full curve]"},
      {"smiles": "CCNc1ncc2nc(-c3cn(C)c4ccccc34)c(=O)n(-c3ccccc3)c2n1", "AC50": "5.01 µM [rising, partial curve]"},
      {"smiles": "Cc1[nH]c2ccccc2c1C(=O)CN1CCN(C2CCCCC2)CC1", "AC50": "3.16 µM [falling, full curve]"},
      {"smiles": "CC(C)Cn1c(N)c(C(=O)NCc2cccs2)c2nc3ccccc3nc21", "AC50": "12.6 µM [rising, partial curve]"},
      {"smiles": "Cc1occc1C(=O)NCc1ccc2c(c1)OCO2", "AC50": "0.251 µM [rising, partial curve]"},
      {"smiles": "COc1ccc(C(=O)Nc2ccccc2NC(=O)c2ccco2)cc1OC", "AC50": "10 µM [rising, partial curve]"},
      {"smiles": "COc1ccccc1OCC(=O)Nc1ccc(S(=O)(=O)Nc2nc(C)cc(C)n2)cc1", "AC50": "0.794 µM [rising, partial curve]"},
      {"smiles": "COc1ccc(CSc2nc(N3CCOCC3)c3c(c2C#N)CC(C)(C)OC3)cc1", "AC50": "2 µM [rising, single point]"},
      {"smiles": "Fc1ccc(C2=Nn3c(nnc3-c3n[nH]c4c3CCC4)SC2)cc1", "AC50": "0.398 µM [rising, full curve]"},
      {"smiles": "Cc1nnc(NC2=NCCC2)s1", "AC50": "5.01 µM [falling, single point]"},
      {"smiles": "OCCNCCCCOc1ccccc1F", "AC50": "0.00316 µM [falling, full curve, poor fit]"},
      {"smiles": "Cc1nc2c([nH]c3ccc(Br)cc32)s1", "AC50": "25.1 µM [rising, single point]"},
      {"smiles": "C[C@@H](C(=O)Nc1ccc2ccccc2c1)[C@H]1C[C@]1(C)[C@H](NC(=O)c1cccnc1)c1ccccc1", "AC50": "3.16 µM [falling, partial curve]"},
      {"smiles": "CS(=O)(=O)Nc1cccc(C(=O)CC2(O)C(=O)Nc3ccc(Br)cc32)c1", "note": "(configuration not stated)", "AC50": "25.1 µM [falling, single point]"},
      {"smiles": "COc1ccc(OC)c(-n2nnnc2SCC(=O)NCc2ccc3c(c2)OCO3)c1", "AC50": "15.8 µM [falling, single point]"},
      {"smiles": "Cc1ccc(C(=O)CSc2nnc(CNc3ccc(C)cc3C)n2Cc2ccco2)cc1", "AC50": "3.98 µM [falling, partial curve]"},
      {"smiles": "O=C(Nc1cccc(-c2nc3ccccc3[nH]2)c1)c1ccco1", "AC50": "2.51 µM [rising, full curve, poor fit]"},
      {"smiles": "CC(=O)NC12CC3CC(C1)CC(C(=O)OCC(=O)NC(=O)c1cccn1C)(C3)C2", "AC50": "5.01 µM [falling, single point]"},
      {"smiles": "CCOC(=O)c1cc(CC)sc1NC(=O)COC", "AC50": "10 µM [falling, partial curve]"},
      {"smiles": "Cc1cccc(CNc2ccnc(-c3ccc(N(C)C)cc3)n2)c1", "AC50": "12.6 µM [rising, partial curve]"},
      {"smiles": "CN(C)c1ncc2nc(-c3cccc(C#N)c3)c(=O)n(CCC#N)c2n1", "AC50": "20 µM [rising, single point]"},
      {"smiles": "Cc1cc(C)c(NC(=O)CSc2nnc(-c3ccco3)n2N)c(C)c1", "AC50": "10 µM [falling, partial curve]"},
      {"smiles": "CC(=O)Nc1ccc(NC(=O)c2ccccc2F)cc1", "AC50": "0.0631 µM [rising, full curve]"},
      {"smiles": "CCN1CCN(C(c2cccs2)C(C)NS(=O)(=O)c2ccc(Br)cc2)CC1", "note": "(configuration not stated)", "AC50": "31.6 µM [falling, single point]"},
      {"smiles": "CCOc1ccc(CCNC(=O)C(CC)n2nc(C)n3c(cc4sccc43)c2=O)cc1OCC", "note": "(configuration not stated)", "AC50": "5.01 µM [falling, partial curve, poor fit]"},
      {"smiles": "CC(C)Cn1c(-c2cccs2)nc2nc3ccccc3nc21", "AC50": "10 µM [rising, partial curve]"},
      {"smiles": "Cc1cc(NCc2ccco2)nc2cc(O)ccc12", "AC50": "12.6 µM [rising, partial curve]"},
      {"smiles": "CCOC(=O)N1CCN(C(=O)c2ccc3nc4ccc(Cl)cc4c(=O)n3c2)CC1", "AC50": "1.26 µM [rising, full curve]"},
      {"smiles": "Cc1ccc(S(=O)(=O)N2CCN(C(=O)C3CCCCC3)CC2)cc1", "AC50": "7.94 µM [falling, partial curve]"},
      {"smiles": "Cc1cc(Nc2ccc(Br)cc2F)n2nc(C)nc2n1", "AC50": "10 µM [rising, single point]"},
      {"smiles": "CCN(CC)S(=O)(=O)c1cc(C)c(C)cc1Br", "AC50": "0.126 µM [falling, full curve]"},
      {"smiles": "COCCn1c(SCc2nnc(-c3ccccc3)o2)nc2sc3c(c2c1=O)CCC3", "AC50": "3.16 µM [rising, partial curve]"},
      {"smiles": "CN1C(=O)c2cccc(NCCCN3C(=O)c4ccccc4C3=O)c2C1=O", "AC50": "12.6 µM [rising, single point]"},
      {"smiles": "Cc1nnc(SCc2nc3ccccc3s2)n1-c1ccccc1", "AC50": "15.8 µM [rising, partial curve]"},
      {"smiles": "CC(C)Nc1nc(NC(C)C)nc(N(C)C#N)n1", "AC50": "12.6 µM [rising, partial curve]"},
      {"smiles": "Cc1ccc(NS(=O)(=O)c2ccc(C)c(C(=O)N3CCN(C)CC3)c2)cc1", "AC50": "0.1 µM [falling, partial curve, poor fit]"},
      {"smiles": "Cc1cc2c(cc1C)-c1nnnn1C(C)(C)C2", "AC50": "12.6 µM [rising, single point]"},
      {"smiles": "O=S1(=O)c2cccc3cccc(c23)N1Cc1nnc(-c2ccccc2Br)o1", "AC50": "2 µM [rising, full curve]"},
      {"smiles": "O=C(Cn1c(=O)sc2ccccc21)N1CCOCC1", "AC50": "0.00316 µM [falling, full curve, poor fit]"},
      {"smiles": "CCN(CC)S(=O)(=O)c1cc(C(=O)Nc2ccccn2)ccc1C", "AC50": "3.16 µM [falling, partial curve, poor fit]"},
      {"smiles": "Cc1cc2c(c(=O)n1CC1CCCO1)C(c1ccco1)C(C#N)=C(N)O2", "note": "(configuration not stated)", "AC50": "3.98 µM [rising, single point]"},
      {"smiles": "CCOC(=O)c1cc(-c2ccc(Cl)s2)nc2c1c(C)nn2C", "AC50": "5.01 µM [rising, single point]"},
      {"smiles": "CC(=O)c1ccccc1OCCn1nnc(-c2ccc(C)cc2)n1", "AC50": "15.8 µM [rising, single point]"},
      {"smiles": "O=C(NCCN1CCN(c2ccccc2)CC1)c1cccn2c(=O)c3cc(Cl)ccc3nc12", "AC50": "0.00398 µM [rising, full curve, poor fit]"},
      {"smiles": "Cc1cc(C(=O)CSc2nnnn2-c2ccc(O)cc2)c(C)n1Cc1ccc2c(c1)OCO2", "AC50": "6.31 µM [falling, partial curve]"},
      {"smiles": "CCOC(=O)CCCCC(=O)c1[nH]c(=O)[nH]c1Cn1ccnc1", "AC50": "0.2 µM [falling, single point]"},
      {"smiles": "COc1ccccc1N1CCN(C(CNS(=O)(=O)c2ccccc2)c2cccnc2)CC1", "note": "(configuration not stated)", "AC50": "0.00316 µM [rising, full curve]"},
      {"smiles": "O=S(=O)(Nc1ccc(N2CCOCC2)nn1)c1ccccc1", "AC50": "5.01 µM [falling, single point]"},
      {"smiles": "CC(=O)c1ccc(NC(=O)N2CCN(c3cccc(Cl)c3)CC2)cc1", "AC50": "12.6 µM [falling, partial curve]"},
      {"smiles": "CC(=O)OCCNc1cc(N2CCN(C)CC2)c2noc3c2c1C(=O)c1ccccc1-3", "AC50": "10 µM [rising, partial curve]"},
      {"smiles": "COc1cccc(Nc2ncc3nc(-c4ccc(F)cc4)c(=O)n(C[C@H]4CCCO4)c3n2)c1", "AC50": "0.631 µM [rising, partial curve]"},
      {"smiles": "CCNc1ncc2nc(-c3ccc(Cl)cc3)c(=O)n(C)c2n1", "AC50": "3.16 µM [rising, partial curve]"},
      {"smiles": "COC(=O)c1cc(=O)n(Cc2ccc3c(c2)OCO3)c(=Nc2ccccc2)s1", "AC50": "2.51 µM [falling, full curve]"},
      {"smiles": "COc1cc(C(=O)OCC(=O)Nc2c(F)c(F)c(F)c(F)c2F)cc(OC)c1OC", "AC50": "10 µM [rising, single point]"},
      {"smiles": "CC1(C)N(O)CC(c2cccs2)=[N+]1[O-]", "AC50": "0.00398 µM [falling, full curve, poor fit]"},
      {"smiles": "Cn1c(C(=O)Nc2ccc3c(c2)OCO3)cc2sccc21", "AC50": "0.794 µM [falling, full curve]"}
    ]}
  ]
}
